# Screening data, single-dose tests

Amino acid sequences for entries named in this document (tags omitted). Residues count along the entry.
UniProt P9WNZ1, whole entry: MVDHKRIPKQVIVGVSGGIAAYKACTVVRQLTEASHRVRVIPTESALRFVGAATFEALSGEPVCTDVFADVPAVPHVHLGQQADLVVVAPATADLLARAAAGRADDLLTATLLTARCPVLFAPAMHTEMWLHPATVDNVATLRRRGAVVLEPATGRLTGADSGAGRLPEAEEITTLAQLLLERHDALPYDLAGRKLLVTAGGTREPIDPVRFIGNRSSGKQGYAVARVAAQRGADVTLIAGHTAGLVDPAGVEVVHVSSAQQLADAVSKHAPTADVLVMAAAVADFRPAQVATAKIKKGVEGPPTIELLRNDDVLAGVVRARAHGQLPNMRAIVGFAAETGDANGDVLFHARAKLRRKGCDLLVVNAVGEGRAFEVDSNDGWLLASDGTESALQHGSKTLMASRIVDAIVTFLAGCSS
UniProt Q4DA54, 1-478: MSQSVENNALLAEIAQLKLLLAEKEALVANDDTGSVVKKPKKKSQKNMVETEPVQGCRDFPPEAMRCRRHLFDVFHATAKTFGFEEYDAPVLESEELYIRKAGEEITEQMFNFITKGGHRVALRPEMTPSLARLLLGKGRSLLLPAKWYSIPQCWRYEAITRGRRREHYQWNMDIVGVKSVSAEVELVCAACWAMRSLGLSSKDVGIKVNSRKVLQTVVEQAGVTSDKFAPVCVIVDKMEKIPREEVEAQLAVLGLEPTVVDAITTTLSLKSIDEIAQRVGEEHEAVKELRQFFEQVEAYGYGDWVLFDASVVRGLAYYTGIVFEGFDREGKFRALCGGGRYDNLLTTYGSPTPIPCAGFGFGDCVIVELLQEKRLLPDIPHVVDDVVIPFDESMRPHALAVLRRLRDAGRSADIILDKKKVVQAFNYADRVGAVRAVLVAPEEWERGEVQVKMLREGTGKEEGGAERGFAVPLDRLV

Data taken from ChEMBL document CHEMBL3988442, “University of Dundee, Small-Polar-MMV Screening Library” (2021).

A: 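Enzyme assay of CoaBC with a phosphate dye (Biomol Green) read at 650 nm. Target: Coenzyme A biosynthesis protein CoaBC, Mycobacterium tuberculosis (UniProt P9WNZ1). Tested at 30 µM. Higher reads as stronger inhibition, judged from the few compounds that gave an IC50. Most strong results did not repeat in a second test. Size under these conditions: about 67,000 compounds, about 40 of them at 50% or above in at least one test.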
B: 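Histidine-tRNA ligase, Trypanosoma cruzi CL Brener (UniProt Q4DA54). Enzyme assay of histidyl-tRNA synthetase; the read-out is not stated. Concentration: 30 µM. Higher reads as stronger inhibition (inferred: compounds with an IC50 in retests scored well above the rest). Of about 69,000 compounds tested this way, about 31 (0.045%) reached 50% or more in at least one test.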

Each number is a percent effect as filed. How 0% and 100% were set is not recorded. Most values in the screen are low, and negative values occur. Compounds were drawn at random from those tested, without regard to their results. A dash means the value is not listed here; it may have been measured.

| structure | A | B |
|---|---|---|
| `c1ccc(-c2ncc(CN3CCCCC3CCn3cccn3)cn2)nc1` (centres unmarked) | 10.49% | 9.948% |
| `CC(C)Oc1cccc(CC(=O)NC2CCN(CC(N)=O)CC2)c1` | -8.884% | 4.762% |
| `CS(=O)(=O)CCN(Cc1cccc(O)c1)C1CCC(O)CC1` (centres unmarked) | 0.8547% | 8.108% |
| `O=C1[C@H]2CCCC[C@H]2C(=O)N1c1cnn(Cc2cccc(F)c2)c1` | -6.544% | -0.8772% |
| `CN(C)c1ccc(-c2ccnc3c2ccn3C)nn1` | -0.7317% | 0.9804% |
| `COc1cc(CN(C)C(=O)NCC(=O)NC(C)C)ccc1SC` | 1.411% | 2.174% |
| `Cc1nn(CCc2nnc(NCC(C)C)s2)c(C)c1Br` | -3.132% | 4.124% |
| `Cc1cccc(C2(C(=O)NC(C)Cn3ccnc3)CC2)c1` (centres unmarked) | 8.673% | 3.509% |
| `O=C(N[C@@H]1CC[C@@H](N2CCOCC2)[C@@H]1O)c1cnn2cccnc12` | -1.703% | 0% |
| `COc1c(CNC(C)C(=O)NC2CCCC2)c(C)nn1C` (centres unmarked) | 2.851% | 1.587% |
| `Cc1ccc(-c2ccnc(NCC3(N(C)C)CCOCC3)n2)c(C)n1` | 3.074% | 3.191% |
| `CCCSCC(=O)N1CCN(c2ccc(OC)cc2)CC1C` (centres unmarked) | 1.089% | 2.186% |
| `Cc1cccc(NC(=O)Cn2ncc(SCC(N)=O)c(Cl)c2=O)c1C` | -5.757% | 12.4% |
| `CC(O)CN1CCN(Cc2cccc(C(=O)N(C)C)c2)CC1` (centres unmarked) | 7.083% | 1.149% |
| `Cc1ccc(CN(C)C(=O)NCC(=O)NC(C)(C)C)s1` | 14.47% | -2.041% |
| `CCc1noc(CS(=O)(=O)CC=C(C)C)n1` | 2.481% | 9.827% |
| `Cc1cc(N2C[C@H](NC(=O)C3(C#N)CCOCC3)[C@@H](C(C)C)C2)ccn1` | 6.068% | 4.95% |
| `Cc1cc(C(=O)N2CCC3(C2)CN(c2cccnc2)C(=O)CN3C)[nH]n1` (centres unmarked) | 5.055% | 8.571% |
| `COC1COC2(CCN(Cc3ccco3)CC2)C1` (centres unmarked) | 3.308% | -0.9709% |
| `CNC(=O)c1cc2c(nc1NCC(C)C)CCN(S(=O)(=O)N(C)C)CC2` | 4.673% | 6.522% |
| `CCC(=O)N1CCN(c2ccc(C(=O)OC)cc2)CC1C` (centres unmarked) | 1.923% | 7.595% |
| `Cc1noc(C)c1CN1CC2(CCCCN2c2cncnc2)CC1=O` (centres unmarked) | 11.63% | 5.376% |
| `Cc1cccc2c1nc1n2[C@@H](CNC2CCCCC2)COC1` | 1.104% | 0% |
| `Cc1ccc(CN2C[C@@H](c3ccccc3)[C@@]3(CCNC3=O)C2)o1` | -2.397% | 9.836% |
| `C=C(C)COc1ccccc1CN1CCC(NC(C)=O)CC1` | 6.914% | 2.488% |
| `N#Cc1cccc(Oc2ccc(CN3CCCC3)cc2Cl)n1` | 1.229% | 9.877% |
| `Cc1ccc(-c2nc(CN3CCOC(Cn4cccn4)C3)co2)cc1` (centres unmarked) | 6.584% | 5.444% |
| `Cc1cc(CN(C)C2CCCN(Cc3noc(C)n3)C2)on1` (centres unmarked) | -13.17% | 0% |
| `O=C(O)COc1ccc(CN2CCCC(Cc3cccnc3)C2)cc1` (centres unmarked) | 0.4854% | 2.682% |
| `CNC(=O)c1ccc(=O)n(Cc2csc(N(C)C(C)=O)n2)c1` | - | 3.896% |
| `CN(Cc1ccccc1)C(=O)CCN1CCC2(CC1)[C@H](O)C[C@@H]2O` | -2.36% | -5.797% |
| `Cc1ccc(C2CN(Cc3cccc4[nH]ccc34)CCO2)nc1` (centres unmarked) | -0.3708% | 8.365% |
| `CN(C)c1nc2c(c(N(C)Cc3n[nH]c4c3CCCCC4)n1)CCNC2` | -40.48% | 23.2% |
| `CN1Cc2ccccc2CC2(CCN(C(=O)N3CCOCC3)CC2)C1=O` | 0.8485% | 0.5587% |
| `CN(C)CC(=O)N1CCCCC1c1nc(N)ncc1-c1ccccc1` (centres unmarked) | 2.354% | 8.989% |
| `Cc1ccc(CN2CCC3(CC2)C(c2ccccc2)CC(=O)N3C)o1` (centres unmarked) | -3.951% | 11.64% |
| `O=C(O)[C@@]12CN(c3cnccn3)C[C@@H]1CN(C1CCOCC1)C2` | 0.3628% | 7.143% |
| `COc1ccc(CN2CCOC3(CCCN(c4nnc(C)o4)C3)C2)cc1` (centres unmarked) | 14.41% | 0.8264% |
| `O=C(Cc1ccc2c(c1)OCCO2)NC1CC1` | -0.2273% | 9.222% |
| `CCn1ccnc1CNc1nccc(-c2cn(C)nc2C)n1` | 4.545% | 3.784% |
| `Cc1cccc(N2CCC(N3CCCC4(CNC(=O)O4)C3)CC2)c1C` (centres unmarked) | 7.739% | 1.587% |
| `CC(=O)NC1CCN(c2c(C#N)cnc3c(C)cc(F)cc23)CC1` | 8.949% | 6.667% |
| `O=C(O)C1c2nc[nH]c2CCN1Cc1cc(-c2ccccc2)no1` (centres unmarked) | 1.463% | 2.941% |
| `O=C(N[C@@H]1CN(Cc2ccoc2)[C@@H]2CCCO[C@@H]21)C1CC1` | 7.765% | 1.442% |
| `COCc1nc(N(C)C/C=C/c2ccccc2)c2cnn(C)c2n1` | 8.351% | 7.955% |
| `CN(C)CCC1CN(C(=O)c2cccc3c2OCC3)CCO1` (centres unmarked) | -3.904% | -3.077% |
| `CCOCC1CN(C(=O)c2ccncn2)Cc2cnn(CC)c21` (centres unmarked) | 5.477% | 7.563% |
| `COc1cc(CN(C)Cc2cccnc2)c(SC)cc1OC` | -2.067% | 7.179% |

Some entries from above, unchanged:

structure	A	B
N#Cc1cccc(Oc2ccc(CN3CCCC3)cc2Cl)n1	1.229%	9.877%
COc1cc(CN(C)C(=O)NCC(=O)NC(C)C)ccc1SC	1.411%	2.174%
O=C(O)[C@@]12CN(c3cnccn3)C[C@@H]1CN(C1CCOCC1)C2	0.3628%	7.143%
COc1ccc(CN2CCOC3(CCCN(c4nnc(C)o4)C3)C2)cc1 (centres unmarked)	14.41%	0.8264%
CNC(=O)c1ccc(=O)n(Cc2csc(N(C)C(C)=O)n2)c1	-	3.896%
CN(C)c1nc2c(c(N(C)Cc3n[nH]c4c3CCCCC4)n1)CCNC2	-40.48%	23.2%